Reference: PubChem BioAssay AID504444 (National Center for Advancing Translational Sciences (NCATS), 2011)
Among all 360,000 compounds or so, about 7,500 (2.1%) were called active. The inconclusive results got no clear call from the source; some entries with a clear call stand among them for comparison. Calls come from the whole dose curve; as a rule, active = well fitted inhibition curve with a large enough effect; inconclusive = small, poorly fitted or top-dose-only effect, or effect the other way; inactive = flat fitted curve, though single readings scatter. A potency beside an inconclusive call is a rough fit, not a confirmed value.

Experiment: Nrf2 qHTS screen for inhibitors; note: nearly all actives have a fitted effect of over 60% in size
Settings: A549 ARE-Fluc reporter, luciferase luminescence, 18-24 h; activity change, negative = inhibition: at 46 µM (top of the series)
In short: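 Quantitative HTS in A549 cells stably bearing an antioxidant response element-firefly luciferase construct. Inhibition of Nrf2-driven transcription was scored by luminescence after 18-24 h of compound exposure at 37 °C.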
% is set by controls: 0 for no effect and ±100 for the full control effect; potency is the fitted concentration of half-maximal effect.

SMILES | Potency | activity change, negative = inhibition
COc1ccc(OCC(=O)N2CCN(c3nnc(-c4ccc(C)cc4)c4ccccc34)CC2)cc1 | inconclusive: 25.9 µM [falling, single point] | –
CCOC(=O)C1CCN(C(c2cccnc2)c2c(NC(=O)c3ccco3)sc(C)c2C)CC1 (stereo not given) | active: 14.6 µM | –
CCCN(C(=O)Cn1nc(Cc2ccncc2)c2ccccc2c1=O)c1ccccc1C | inconclusive: 7.31 µM [falling, partial curve, poor fit] | –
N=c1oc2cc(O)ccc2cc1C(=O)Nc1ccc(Br)cc1 | active: 20.6 µM | –
COc1ccc(-c2cc3ccccc3oc2=O)cc1NC(=O)c1cccnc1 | inconclusive: 16.4 µM [falling, partial curve, poor fit] | –
N#Cc1nc(-c2ccc(F)cc2)oc1NCc1ccco1 | – | inactive: 16.2%
Cc1ccc(Nc2nnc(SCC(=O)c3cc4ccccc4o3)s2)cc1C | inconclusive: 18.4 µM [activator, partial curve] | –
COc1ccccc1C(=O)C1CCCN(C(=O)c2ccccc2C(C)=O)C1 (stereo not given) | inconclusive: 18.4 µM [activator, partial curve] | –
Cc1cc(=O)n(C)c(=O)n1CCCCCCOc1cccc([N+](=O)[O-])c1 | inconclusive: 23.1 µM [falling, single point] | –
CCc1ccc2c(c1)C1(C(=O)N2)N2CCCC2C(C(=O)c2ccc3ccccc3c2)C12C(=O)Nc1ccccc12 (stereo not given) | inconclusive: 29.1 µM [falling, single point] | –
CC(=O)c1cn(CC(=O)Nc2c(C)cccc2C)c2ccccc12 | active: 9.2 µM | –
O=C(Nc1ccc(N2CCCCC2)cc1)c1ccc([N+](=O)[O-])o1 | inconclusive: 13 µM [activator, partial curve] | –
CN(C)S(=O)(=O)c1cccc(NC(=O)C(c2ccccc2)c2ccccc2)c1 | inconclusive: 1.3 µM [activator, full curve, poor fit] | –
CCOC(=O)c1c(C)[nH]c(C(=O)COC(=O)CCSc2ccccc2)c1C | – | inactive: 5.05%
CCCc1ccc2oc(C(=O)N3CCCC3)c(C)c2c1 | inconclusive: 9.2 µM [activator, partial curve] | –
COc1ccc(OC)c2c1CCC2=O | – | inactive: -11%
COc1cc(NC(=O)CN(c2ccc(C)cc2)S(=O)(=O)c2c(C)noc2C)cc(OC)c1 | inconclusive: 20.6 µM [falling, single point] | –
Cc1c(C(=O)NCc2ccccc2)oc2c1-c1[nH]ncc1CC2 | – | inactive: 2.4%
O=C(CCc1ccccc1)Nc1ccccc1[N+](=O)[O-] | inconclusive: 16.4 µM [activator, single point] | –
CN(CC(=O)Nc1cccc(F)c1)C(=O)COc1cccc2c1OC(C)(C)C2 | inconclusive: 29.1 µM [falling, partial curve, poor fit] | –
Cc1[nH]n(-c2ccc([N+](=O)[O-])cc2)c(=O)c1C=NCCN1CCN(C(=O)c2ccc(Br)cc2)CC1 | – | inactive: 9.6%
Cc1cccc(N2CCN(C(=O)c3ccnn3C)CC2)c1C | – | inactive: -21.5%
COc1cc(C(=O)Nc2nc3ccccc3s2)ccc1OCc1c(C)noc1C | inconclusive: 20.6 µM [falling, single point] | –

Taken from above.
In activity change, negative = inhibition, `CCOC(=O)c1c(C)[nH]c(C(=O)COC(=O)CCSc2ccccc2)c1C` shows inactive: 5.05%
In Potency, `COc1cc(NC(=O)CN(c2ccc(C)cc2)S(=O)(=O)c2c(C)noc2C)cc(OC)c1` shows inconclusive: 20.6 µM [falling, single point]
In activity change, negative = inhibition, `Cc1c(C(=O)NCc2ccccc2)oc2c1-c1[nH]ncc1CC2` shows inactive: 2.4%
In Potency, `CC(=O)c1cn(CC(=O)Nc2c(C)cccc2C)c2ccccc12` shows active: 9.2 µM

(cont.)

SMILES | Potency | activity change, negative = inhibition
N#C/C(=C\c1cccnc1)c1ccccc1[N+](=O)[O-] | – | inactive: -6.51%
O=[N+]([O-])c1cnc(Sc2ccncn2)s1 | – | inactive: -3.34%
CC(=O)c1c(C)[nH]c(C(=O)NNC(=O)COc2ccc(Cl)cc2C)c1C | inconclusive: 29.1 µM [falling, single point] | –
CSc1ccc(CCNC(=O)c2nn(C)c3c2CS(=O)(=O)c2ccccc2-3)cc1 | – | inactive: -10.3%
CCOC(=O)N1CCC(NC(=O)c2ccc3c(c2)N(C)C(=O)/C(=C/c2cccc(OC)c2)S3)CC1 | active: 16.4 µM | –
CC(C)C[C@H](NC(=O)c1nc[nH]c1C(=O)N[C@@H](CC(C)C)C(=O)OC(C)(C)C)C(=O)OC(C)(C)C | active: 25.9 µM | –
S=C(NNC(=S)Nc1ccccc1)Nc1ccccc1 | inconclusive: 16.4 µM [activator, partial curve, poor fit] | –
S=C(NCC1CCCO1)Nc1ccc(Nc2ccccc2)cc1 (stereo not given) | active: 14.6 µM | –
COc1ccccc1COC(=O)Nc1c(C)nn(C)c1Cl | – | inactive: -10.7%
CC(=O)CC(C)(C)n1nnc(-c2ccccc2)n1 | inconclusive: 29.1 µM [activator, single point] | –
Cc1ccc2[nH]c3c(=O)n(CC(=O)N(C)Cc4ccccc4)ncc3c2c1 | inconclusive: 9.2 µM [activator, partial curve, poor fit] | –
CC(=O)Nc1ccc(NC(=O)CN(C)S(=O)(=O)c2ccc3c(c2)CCC(=O)N3)cc1 | – | inactive: -2.35%
Cn1c(CN2CCCCC2)nc2cc(NC(=O)c3ccc(Cl)cc3)ccc21 | active: 5.8 µM | –
COc1ccc(/C=N/NC(=O)c2cc(-c3ccccc3)nc3ccccc23)c(OC)c1 | inconclusive: 16.4 µM [falling, partial curve, poor fit] | –
Cc1cccc(N2CCN(C(=O)C3CC(=O)N(C4CCCC4)C3)CC2)c1C (stereo not given) | inconclusive: 20.6 µM [falling, partial curve] | –
N/C(=N\OC(=O)Cc1ccc(-c2ccccc2)cc1)c1cccnc1 | inconclusive: 18.4 µM [falling, partial curve, poor fit] | –
O=C(O)c1ccc(-c2nc(-c3cccc(C(F)(F)F)c3)cs2)cc1 | inconclusive: 8.2 µM [falling, partial curve] | –
COC(=O)[C@@]12CCCN1[C@H](c1ccc(-c3cccc(Cl)c3)cc1)[C@H]1C(=O)N(C)C(=O)[C@H]12 | – | inactive: -0.87%
CCCCSc1nnc(-c2ccccc2N)c(=O)[nH]1 | inconclusive: 11.6 µM [activator, partial curve] | –
CC(C)c1ccccc1NC(=O)COC(=O)c1c2c(nc3ccccc13)CCN(Cc1ccccc1)C2 | inconclusive: 29.1 µM [falling, single point] | –
CC(=O)c1cccc(NS(=O)(=O)c2ccc(NC(=O)N3CCCCC3)cc2)c1 | active: 8.2 µM | –
N#Cc1cc2c(=O)n3ccccc3nc2n(-c2nnc(SCc3ccccc3)s2)c1=O | inconclusive: 29.1 µM [falling, single point] | –
